Reference: publication PMC7692187, “Rapid In Vivo Validation of HDAC Inhibitor-Based Treatments in Neuroblastoma Zebrafish Xenografts” (Pharmaceuticals, 2020)

Test system: xenografted tumor cells
Experiment: Dose response in zebrafish xenografts: relative IC50 from the change in tumor volume
Type: in vivo, human
Conditions: Danio rerio; 48 h treatment from 24 hpi, compared to solvent, drug applied to surrounding water, n = 3–5 fish per concentration
Experimental: To determine optimal drug concentrations, larvae bearing xenografted tumor cells were incubated with increasing drug concentrations 24 h post implantation (hpi), ranging from the concentrations used in previous cell culture experiments to the MTD(larvae) (Figure 2a). […] Using these concentrations, we evaluated whether HDACis were able to reach their specific enzymatic targets.
Right: representative images of immunohistochemical staining (c) Left: quantification of staining for acetylated histone H3. Right: representative images of immunohistochemical staining.
For treatment, larvae were incubated in freshly prepared buffer solution supplemented with 0.2 mM PTU, containing the drug of interest at increasing concentrations. Drug-containing solutions were administered at the beginning of the experiment and were not replaced during the incubation period. Solvent control was applied in the same manner as the drug treatments.

Structure (SMILES): O=C(CCCCCCC(=O)Nc1ccccc1)NO [vorinostat]
- IC50: 15 µM
